These are yes or no findings as the source states them, for the method shown. Binding seen in cells or lysates may run through a third protein. Some binding calls cover weakened binding; strength is not graded here.
Columns and labels:
[1] = biological target: TCF-4 (T cell factor 4) transcription factor (human (endogenous in C33A)) (UniProt Q9NQB0); experiment: co-IP; C33A cells transfected with FLAG-E6 plasmids, 48 h; 400 µg protein extract with 1 µg anti-β-catenin or anti-TCF-4 (or IgG isotype) overnight at 4 °C, protein G-agarose 3 h, washed with PBS-0.1% NP-40; E6 proteins detected with anti-FLAG M2
[2] = biological target: β-catenin (human (endogenous in C33A)) (UniProt P35222); experiment: as above
[3] = biological target: GST-16E6 (human papillomavirus type 16) (UniProt P03126); experiment: pull-down; GST-E6 fusion proteins on glutathione sepharose beads incubated overnight with 40 µg C33A cellular protein extract; bound protein detected by western blot with anti-TCF-4 and anti-β-catenin; only the target purified
[4] = biological target: GST-18E6 (human papillomavirus type 18) (UniProt P06463); experiment: as above

Sequences of proteins named here, by UniProt entry; tags and fusion partners are left off. A change or cut given only in a name is not applied to a line headed by its entry.
UniProt Q9NQB0: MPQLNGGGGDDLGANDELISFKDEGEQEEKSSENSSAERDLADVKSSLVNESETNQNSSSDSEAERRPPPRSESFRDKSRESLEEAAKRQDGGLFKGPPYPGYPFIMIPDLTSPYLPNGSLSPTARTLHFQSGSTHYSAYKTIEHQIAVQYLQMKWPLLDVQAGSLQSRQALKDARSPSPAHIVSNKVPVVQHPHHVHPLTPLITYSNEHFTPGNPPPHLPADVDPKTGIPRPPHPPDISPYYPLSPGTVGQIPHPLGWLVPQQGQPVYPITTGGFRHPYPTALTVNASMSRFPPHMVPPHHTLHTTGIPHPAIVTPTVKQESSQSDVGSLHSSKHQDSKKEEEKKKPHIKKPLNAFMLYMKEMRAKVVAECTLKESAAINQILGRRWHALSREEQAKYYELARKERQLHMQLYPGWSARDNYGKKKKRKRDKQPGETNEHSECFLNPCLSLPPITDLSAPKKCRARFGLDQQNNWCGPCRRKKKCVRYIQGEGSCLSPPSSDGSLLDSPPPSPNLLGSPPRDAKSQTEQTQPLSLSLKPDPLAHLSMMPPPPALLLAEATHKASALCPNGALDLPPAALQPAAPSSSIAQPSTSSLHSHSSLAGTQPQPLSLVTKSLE
UniProt P35222: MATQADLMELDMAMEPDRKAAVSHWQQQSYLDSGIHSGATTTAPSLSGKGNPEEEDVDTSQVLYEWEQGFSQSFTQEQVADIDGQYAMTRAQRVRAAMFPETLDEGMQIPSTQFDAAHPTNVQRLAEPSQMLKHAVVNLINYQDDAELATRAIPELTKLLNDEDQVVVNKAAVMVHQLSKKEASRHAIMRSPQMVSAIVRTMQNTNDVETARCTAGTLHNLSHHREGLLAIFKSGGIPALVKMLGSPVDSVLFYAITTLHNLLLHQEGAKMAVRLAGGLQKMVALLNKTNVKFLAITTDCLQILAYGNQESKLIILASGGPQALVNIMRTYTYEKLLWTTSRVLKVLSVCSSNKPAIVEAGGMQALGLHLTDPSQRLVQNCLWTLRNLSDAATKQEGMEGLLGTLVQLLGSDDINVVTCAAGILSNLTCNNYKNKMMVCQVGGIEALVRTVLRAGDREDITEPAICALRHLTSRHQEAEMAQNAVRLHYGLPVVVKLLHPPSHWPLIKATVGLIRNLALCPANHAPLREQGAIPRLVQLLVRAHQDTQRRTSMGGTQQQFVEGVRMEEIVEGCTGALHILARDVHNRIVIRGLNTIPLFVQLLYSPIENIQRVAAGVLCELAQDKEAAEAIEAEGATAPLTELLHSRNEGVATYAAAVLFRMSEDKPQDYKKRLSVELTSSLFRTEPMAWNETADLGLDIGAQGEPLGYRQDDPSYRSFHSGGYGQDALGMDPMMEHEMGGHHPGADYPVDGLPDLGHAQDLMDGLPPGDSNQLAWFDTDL
UniProt P03126: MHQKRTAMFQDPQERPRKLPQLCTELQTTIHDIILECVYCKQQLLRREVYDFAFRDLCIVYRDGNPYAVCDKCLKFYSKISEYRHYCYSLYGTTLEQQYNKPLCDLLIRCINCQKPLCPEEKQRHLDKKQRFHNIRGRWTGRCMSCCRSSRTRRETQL

HPV-18 E6 full-length, FLAG-tagged (reference variant E6AsAi) (from UniProt P06463 1-158)
binding [1]: binds
binding [2]: binds

β-catenin (from UniProt P35222 1-781)
binding [3]: binds
binding [4]: binds

TCF-4 (T cell factor 4) transcription factor (from UniProt Q9NQB0 1-619)
binding [3]: binds
binding [4]: binds

HPV-16 E6, FLAG-tagged (from UniProt P03126 1-158)
binding [1]: binds
binding [2]: binds

Reference: PMC6214013
